According to US20110218188A1, “SUBSTITUTED (PYRIDYL)-AZINYLAMINE DERIVATIVES AS FUNGICIDES” (priority 2008, published 2011):
Some entries share one result that the patent states for a list of compounds.

Legend:
[1] = test system: Pyricularia oryzae; format: in vivo; conditions: 250 ppm of active ingredient; rice, protective; evaluated 5 days after the inoculation
[2] = test system: Uromyces appendiculatus; test: Uromyces test (beans)/protective; format: in vivo; conditions: 100 ppm of active ingredient, protective, evaluated 10 days after the inoculation
[3] = test system: Botrytis cinerea; test: In vivo test on Botrytis cinerea (grey mould); conditions: dose of 500 ppm; gherkin plants sprayed 24 hours before contamination; grading 5/7 days after the contamination
[4] = test system: Venturia inaequalis; test: Venturia test (apples)/protective; format: in vivo; conditions: 100 ppm of active ingredient, protective, evaluated 10 days after the inoculation
[5] = test system: Pyrenophora teres; test: In vivo test on Pyrenophora teres (barley net blotch); conditions: dose of 500 ppm; barley plants sprayed 24 hours before contamination; grading 12 days after the contamination
[6] = test system: Sphaerotheca fuliginea; test: In vivo test on Sphaerotheca fuliginea (cucurbits powdery mildew); conditions: dose of 500 ppm; gherkin plants sprayed 24 hours before contamination; grading (% of efficacy) 12 days after the contamination
[7] = test system: Peronospora parasitica; test: In vivo test on Peronospora parasitica (crucifer downy mildew); conditions: dose of 500 ppm; cabbage plants sprayed 24 hours before contamination; grading 5 days after the contamination, in comparison with the control plants

| SMILES | efficacy [1] [%] | efficacy [2] [%] | good (at least 70%) or total protection [3] | efficacy [4] [%] | good (at least 70%) protection [5] | good (at least 70%) or total protection [6] | good (at least 70%) or total protection [7] |
| --- | --- | --- | --- | --- | --- | --- | --- |
| CC(=NNCCC#N)c1cc(-c2ncnc(Nc3cccc(Cl)c3)n2)ccn1 [Example B81, 3-{2-[1-(4-{4-[(3-chlorophenyl)amino]-1,3,5-triazin-2-yl}pyridin-2-yl)ethylidene]hydrazinyl}propanenitrile] | ≥ 80 | – | – | – | – | – | – |
| CCN(C)C(=O)c1cc(-c2ncnc(Nc3cccc(SC)c3)n2)ccn1 [Example B222] | ≥ 80 | ≥ 70 | at least 70% | ≥ 70 | at least 70% | at least 70% | at least 70% |
